{
  "source": "patent US8377990B2",
  "about": "“Conjugates comprising a psychotropic drug or a GABA agonist and an organic acid and their use in treating pain and other CNS disorders” (Ramot at Tel-Aviv University Ltd., priority 2006, dated 2013)",
  "format_in_all_cases": "in vivo",
  "key": {"Male Balb-c mice": {"tested_on": "Male Balb-c mice", "test": "Hot plate test, latency of the nociceptive reaction to heat", "conditions": "for antinociceptive effect (latency to heat) after daily dose: equimolar to nortriptyline 0.2 mg/kg"}, "Balb-c mice": {"tested_on": "Balb-c mice", "test": "Formalin test (intraplantar formalin, time licking or biting the injected paw)", "conditions": "oral, three hours before 1% formalin; for early neurogenic response to pain (time licking the injected paw): 0-5 min after injection"}, "Wistar rats [1]": {"tested_on": "Wistar rats", "test": "Carrageenan-induced paw edema test", "conditions": "for paw height after carrageenan: po, molar equivalent to 5 mg/kg nortriptyline, 24 hours and 48 hours following edema induction; for area of carrageenan-induced paw edema (inflammatory area): p.o. fluoxetine 40 mg/kg or equimolar conjugate, three hours before λ-carrageenan, measured 2 and 4 hours later, FIG. 11, Hydrochloride"}, "Wistar rats [2]": {"tested_on": "Wistar rats", "test": "Hot plate test in rats (Example 5)", "conditions": "po, molar equivalent to 5 mg/kg nortriptyline; vs Nortriptyline alone and Gabapentin; 4 hours following injection; FIG. 12"}, "INF-γ": {"tested_on": "INF-γ", "test": "INF-γ in paw skin of formalin-injected mice (immunoassay)", "conditions": "oral, equimolar to 0.5 mg/kg nortriptyline, two hours prior to formalin; vs equimolar Nortriptyline or Nortriptyline+GABA; FIG. 14A"}, "TNF-α": {"tested_on": "TNF-α", "test": "TNF-α in paw skin of formalin-injected mice (ELISA)", "conditions": "oral, equimolar to 0.5 mg/kg nortriptyline, two hours prior to formalin; vs equimolar Nortriptyline or Nortriptyline+GABA; FIG. 14B"}},
  "note": "Counter-ions that a name gives are not always drawn. For at least one compound, name, drawing or mass did not settle the structure.",
  "data": [
    {"smiles": "CN(CCC=C1c2ccccc2CCc2ccccc21)C(=O)CCCN", "note": "[AN-228, 10,11-Dihydro-5-(3-methylaminopropylidene)-5H-dibenzo[a,d][1,4]cycloheptene 4-Amino-N-butanamide Hydrochloride]", "values": [
      {"measurement": "dose dependence of response to heat", "setting": "Male Balb-c mice; conjugate p.o., equimolar to 0.5 mg/kg vs equimolar to 4.5 mg/kg nortriptyline, two hours, FIG. 1", "value": "Saturation in response"},
      {"measurement": "latency of response to heat", "setting": "Male Balb-c mice; p.o. 0.25 mg/kg nortriptyline or equimolar conjugate (0.32 mg/kg), 4 hours following treatment, vs untreated mice, FIG. 2A", "value": "increased significantly the latency of response compared to untreated mice"},
      {"measurement": "delay in response to heat", "setting": "Male Balb-c mice; p.o. conjugate 0.32 mg/kg (equimolar to 0.25 mg/kg nortriptyline), 4 and 6 hours post treatment, vs untreated mice, FIG. 2A", "value": "significantly greater delay in response compared to the untreated mice"},
      {"measurement": "antinociceptive effect compared with nortriptyline", "setting": "Male Balb-c mice; p.o. conjugate 0.32 mg/kg vs 0.25 mg/kg nortriptyline, 4 hours, FIG. 2A", "value": "significantly greater than that of nortriptyline"},
      {"measurement": "antinociceptive effect (latency to heat)", "setting": "Male Balb-c mice; p.o. conjugate 0.64 mg/kg (equimolar to 0.5 mg/kg nortriptyline), two hours following treatment, vs nortriptyline and vehicle, FIG. 2B", "value": "significant antinociceptive effect"},
      {"measurement": "antinociceptive effect (latency to heat) after daily dose", "setting": "Male Balb-c mice; repeated oral treatment daily for 15 days, from the third day, during the five hours of testing, FIGS. 3B-E", "value": "significantly better antinociceptive effect compared to untreated animals or those treated with nortriptyline"},
      {"measurement": "latency response to heat prior to daily treatment (time 0)", "setting": "Male Balb-c mice; repeated oral treatment daily for 15 days, nortriptyline 0.2 mg/kg or equimolar conjugate, from the eighth day, FIG. 3A", "value": "sustained latency response"},
      {"measurement": "antinociceptive effect (latency to heat) after daily dose", "setting": "Male Balb-c mice; repeated oral treatment, 4 and 5 h after the daily dose, from the first day of treatment", "value": "significantly improved antinociceptive effect compared to untreated animals and those treated with nortriptyline"},
      {"measurement": "latency of response to heat", "setting": "Male Balb-c mice; single p.o. dose, 0.5 mg/kg nortriptyline or equimolar dose of conjugate, two hours after administration, FIG. 1", "value": "imparted antinociceptive activity at a lower concentration than nortriptyline"},
      {"measurement": "latency of response to heat", "setting": "Male Balb-c mice; single p.o. dose, 4.5 mg/kg nortriptyline or equimolar dose of conjugate, two hours after administration, vs vehicle, p<0.05, FIG. 1", "value": "significant delay in the response compared to control mice"},
      {"measurement": "early neurogenic response to pain (time licking the injected paw)", "setting": "Balb-c mice; both doses (equivalent of 0.5 and 5 mg/kg nortriptyline), vs nortriptyline alone, FIG. 10A", "value": "decreased significantly (p<0.05)"},
      {"measurement": "late inflammatory peripheral response to pain", "setting": "Balb-c mice; both doses (equivalent of 0.5 and 5 mg/kg nortriptyline), late phase, vs nortriptyline alone, FIG. 10B", "value": "decreased significantly (p<0.05)"},
      {"measurement": "paw height after carrageenan", "setting": "Wistar rats [1]; vs Nortriptyline alone and control, 4 hours, FIG. 13A", "value": "significantly lower"},
      {"measurement": "paw height after carrageenan", "setting": "Wistar rats [1]; vs Nortriptyline alone, Gabapentin (100 mg/kg) and control, FIG. 13B", "value": "significantly lower"},
      {"measurement": "response to heat sensation (hot plate latency)", "setting": "Wistar rats [2]", "value": "significantly delayed response to heat sensation"},
      {"measurement": "amount of INF-γ in paw skin", "setting": "INF-γ", "value": "significantly lower"},
      {"measurement": "amount of TNF-α in paw skin", "setting": "TNF-α", "value": "significantly lower"}
    ]},
    {"smiles": "CN(CCC(Oc1ccc(C(F)(F)F)cc1)c1ccccc1)C(=O)CCCN.Cl", "note": "(stereo not drawn) [AN-227, N-(3-(4-(trifluoromethyl)phenoxy)-3-phenylpropyl)-4-amino-N-methylbutanamide Hydrochloride]", "values": [
      {"measurement": "antinociceptive effect (latency to heat) during repeated treatment", "setting": "Male Balb-c mice; repeated oral treatment daily for 11 days, fluoxetine 10 mg/kg or equimolar conjugate, FIGS. 5B-E", "value": "significantly improved antinociceptive effect compared to fluoxetine or untreated animals"},
      {"measurement": "response to heat sensation prior to daily treatment", "setting": "Male Balb-c mice; repeated oral treatment daily for 11 days, fluoxetine 10 mg/kg or equimolar conjugate, tested at days 3, 7, 9 and 11, vs vehicle, FIG. 5A", "value": "Delayed response to heat sensation in mice receiving fluoxetine-GABA was noted on days 3, 9 and 11"},
      {"measurement": "analgesic effect (latency to heat)", "setting": "Male Balb-c mice; single p.o. dose equimolar to fluoxetine 10 mg/kg, 2, 3 and 4 hours following treatment, FIG. 4", "value": "significantly greater than that of untreated mice or mice treated with equimolar dose of GABA or fluoxetine"},
      {"measurement": "early neurogenic response to pain (time licking the injected paw)", "setting": "Balb-c mice; both doses (equimolar to 10 and 30 mg/kg fluoxetine), vs fluoxetine alone, FIG. 9A", "value": "decreased significantly (p<0.05)"},
      {"measurement": "late inflammatory peripheral response to pain", "setting": "Balb-c mice; higher dose (equivalent to 30 mg/kg fluoxetine), late phase 25-35 min after injection, FIG. 9B", "value": "reduced significantly (p<0.05)"},
      {"measurement": "area of carrageenan-induced paw edema (inflammatory area)", "setting": "Wistar rats [1]; listed as fluoxetine GABA conjugate", "value": "significantly reduced the inflammatory area"},
      {"measurement": "area of carrageenan-induced paw edema (inflammatory area)", "setting": "Wistar rats [1]; listed as fluoxetine-GABA conjugate", "value": "reduced edema both at two hours and four hours as compared to control and fluoxetine alone"}
    ]}
  ]
}
